Data from publication PMC6349854, “GLUT1 and GLUT3 involvement in anthocyanin gastric transport- Nanobased targeted approach” (Scientific Reports, 2019).

System: Mv3glc transport through MKN-28 barrier
Assay: Effect of transporter inhibitors on anthocyanin transport through MKN-28 barrier
Format: cell-based, human
Conditions: inhibitor 50 µM; apical pH 5.0, basolateral pH 7.4
Procedure: Transepithelial transport experiments were performed using a similar procedure from the one described elsewhere. […] Cells were cultured at 37 °C in an atmosphere of 5% CO2 and the medium was changed every two days.
After this treatment, media was removed and cells were washed with Hanks’ medium (HBSS), pH 7.4 at the basolateral side and with HBSS pH 5.0 at the apical side. Anthocyanin solution (500 µM) in HBSS pH 5.0 was added to the apical side of the cells and HBSS containing 2% fetal bovine serum free of polyphenols was added to the basolateral compartment. Transepithelial transport was followed as a function of time, at 4 °C and 37 °C. Samples were taken from the basolateral side and replaced by fresh medium. The samples (150 µL) were acidified with HCl 6 M to a final concentration of 1% and frozen at −18 °C until HPLC analysis.

Compound: CN1[C@@H]2CC[C@H]1C[C@@H](OC(=O)C(CO)c1ccccc1)C2 (stereo partly shown) [Atropin]
- effect on Mv3glc transport: reduce the amount of Mv3glc detected in the basolateral side
